Source: paper PMC4947180
These are yes or no findings as the source states them, for the method shown. Binding seen in cells or lysates may run through a third protein. Some results given as binding are weak or reduced against the parent protein; the word gives no strength.

Protein sequences, listed by entry. Tags and fused reporters are not part of them.
UniProt P58854: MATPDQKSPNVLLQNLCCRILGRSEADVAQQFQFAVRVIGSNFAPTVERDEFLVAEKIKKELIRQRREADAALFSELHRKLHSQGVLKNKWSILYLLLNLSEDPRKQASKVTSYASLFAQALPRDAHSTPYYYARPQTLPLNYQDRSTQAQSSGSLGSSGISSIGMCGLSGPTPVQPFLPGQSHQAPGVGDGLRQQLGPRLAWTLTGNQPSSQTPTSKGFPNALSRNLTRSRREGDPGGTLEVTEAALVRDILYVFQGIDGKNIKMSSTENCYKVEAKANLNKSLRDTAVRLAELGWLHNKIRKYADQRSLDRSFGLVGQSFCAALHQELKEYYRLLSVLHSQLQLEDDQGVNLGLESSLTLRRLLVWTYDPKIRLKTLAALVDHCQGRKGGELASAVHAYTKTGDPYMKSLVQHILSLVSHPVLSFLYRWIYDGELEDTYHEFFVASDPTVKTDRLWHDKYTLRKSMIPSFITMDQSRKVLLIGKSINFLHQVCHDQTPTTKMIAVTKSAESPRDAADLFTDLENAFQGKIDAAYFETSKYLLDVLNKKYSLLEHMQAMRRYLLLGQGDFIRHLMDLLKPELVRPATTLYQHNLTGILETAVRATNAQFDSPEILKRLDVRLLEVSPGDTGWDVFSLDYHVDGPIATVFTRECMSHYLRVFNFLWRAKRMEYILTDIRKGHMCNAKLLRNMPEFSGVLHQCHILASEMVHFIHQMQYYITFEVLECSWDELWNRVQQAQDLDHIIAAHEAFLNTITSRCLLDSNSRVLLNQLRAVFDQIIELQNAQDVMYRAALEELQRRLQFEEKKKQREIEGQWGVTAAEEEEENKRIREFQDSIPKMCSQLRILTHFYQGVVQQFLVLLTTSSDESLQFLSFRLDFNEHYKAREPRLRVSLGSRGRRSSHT
UniProt P33215: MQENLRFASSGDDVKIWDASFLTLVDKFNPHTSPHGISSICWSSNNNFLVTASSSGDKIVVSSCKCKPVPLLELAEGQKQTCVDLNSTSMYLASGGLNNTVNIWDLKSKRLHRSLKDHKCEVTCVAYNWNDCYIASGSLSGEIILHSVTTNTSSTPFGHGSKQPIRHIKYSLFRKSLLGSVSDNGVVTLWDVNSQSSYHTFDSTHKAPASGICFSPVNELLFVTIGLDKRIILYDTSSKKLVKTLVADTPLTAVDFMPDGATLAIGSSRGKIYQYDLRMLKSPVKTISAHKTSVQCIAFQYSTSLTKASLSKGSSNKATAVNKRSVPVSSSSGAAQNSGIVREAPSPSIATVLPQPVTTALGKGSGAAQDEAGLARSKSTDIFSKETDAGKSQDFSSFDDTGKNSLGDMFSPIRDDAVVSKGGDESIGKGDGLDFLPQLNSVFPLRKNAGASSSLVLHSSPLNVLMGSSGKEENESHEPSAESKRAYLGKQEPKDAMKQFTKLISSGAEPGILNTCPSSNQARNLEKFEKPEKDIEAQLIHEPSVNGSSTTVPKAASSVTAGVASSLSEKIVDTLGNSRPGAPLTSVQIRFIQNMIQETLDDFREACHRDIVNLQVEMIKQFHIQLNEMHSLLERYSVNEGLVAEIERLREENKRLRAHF

Molecular target: γTuRC subunit GCP3 (mouse (endogenous in hippocampal cultures)) (UniProt P58854)
Assay: co-IP; 3 DIV or 10 DIV hippocampal cultures lysed (50 mM Tris pH 7.4, 150 mM NaCl, 1 mM MgCl2, 1 mM EGTA, 10% glycerol, 1% Triton X-100); immunoprecipitation with anti-GCP3 antibody overnight or control IgG, Protein G-Sepharose; immunoblot

binding: binds
Substance: γTuRC targeting subunit NEDD1 (from UniProt P33215 1-660)
